Source: article PMC12989817
No constants are given. Whether binding was seen depends on the method and setting. Binding seen in cells or lysates may run through a third protein. These calls come from enrichment with a bait or labelling near it, and not all partners need be listed.

Sequences of proteins named here, by UniProt entry; tags and fusion partners are left off. Residues count along the entry.
UniProt Q96BY6: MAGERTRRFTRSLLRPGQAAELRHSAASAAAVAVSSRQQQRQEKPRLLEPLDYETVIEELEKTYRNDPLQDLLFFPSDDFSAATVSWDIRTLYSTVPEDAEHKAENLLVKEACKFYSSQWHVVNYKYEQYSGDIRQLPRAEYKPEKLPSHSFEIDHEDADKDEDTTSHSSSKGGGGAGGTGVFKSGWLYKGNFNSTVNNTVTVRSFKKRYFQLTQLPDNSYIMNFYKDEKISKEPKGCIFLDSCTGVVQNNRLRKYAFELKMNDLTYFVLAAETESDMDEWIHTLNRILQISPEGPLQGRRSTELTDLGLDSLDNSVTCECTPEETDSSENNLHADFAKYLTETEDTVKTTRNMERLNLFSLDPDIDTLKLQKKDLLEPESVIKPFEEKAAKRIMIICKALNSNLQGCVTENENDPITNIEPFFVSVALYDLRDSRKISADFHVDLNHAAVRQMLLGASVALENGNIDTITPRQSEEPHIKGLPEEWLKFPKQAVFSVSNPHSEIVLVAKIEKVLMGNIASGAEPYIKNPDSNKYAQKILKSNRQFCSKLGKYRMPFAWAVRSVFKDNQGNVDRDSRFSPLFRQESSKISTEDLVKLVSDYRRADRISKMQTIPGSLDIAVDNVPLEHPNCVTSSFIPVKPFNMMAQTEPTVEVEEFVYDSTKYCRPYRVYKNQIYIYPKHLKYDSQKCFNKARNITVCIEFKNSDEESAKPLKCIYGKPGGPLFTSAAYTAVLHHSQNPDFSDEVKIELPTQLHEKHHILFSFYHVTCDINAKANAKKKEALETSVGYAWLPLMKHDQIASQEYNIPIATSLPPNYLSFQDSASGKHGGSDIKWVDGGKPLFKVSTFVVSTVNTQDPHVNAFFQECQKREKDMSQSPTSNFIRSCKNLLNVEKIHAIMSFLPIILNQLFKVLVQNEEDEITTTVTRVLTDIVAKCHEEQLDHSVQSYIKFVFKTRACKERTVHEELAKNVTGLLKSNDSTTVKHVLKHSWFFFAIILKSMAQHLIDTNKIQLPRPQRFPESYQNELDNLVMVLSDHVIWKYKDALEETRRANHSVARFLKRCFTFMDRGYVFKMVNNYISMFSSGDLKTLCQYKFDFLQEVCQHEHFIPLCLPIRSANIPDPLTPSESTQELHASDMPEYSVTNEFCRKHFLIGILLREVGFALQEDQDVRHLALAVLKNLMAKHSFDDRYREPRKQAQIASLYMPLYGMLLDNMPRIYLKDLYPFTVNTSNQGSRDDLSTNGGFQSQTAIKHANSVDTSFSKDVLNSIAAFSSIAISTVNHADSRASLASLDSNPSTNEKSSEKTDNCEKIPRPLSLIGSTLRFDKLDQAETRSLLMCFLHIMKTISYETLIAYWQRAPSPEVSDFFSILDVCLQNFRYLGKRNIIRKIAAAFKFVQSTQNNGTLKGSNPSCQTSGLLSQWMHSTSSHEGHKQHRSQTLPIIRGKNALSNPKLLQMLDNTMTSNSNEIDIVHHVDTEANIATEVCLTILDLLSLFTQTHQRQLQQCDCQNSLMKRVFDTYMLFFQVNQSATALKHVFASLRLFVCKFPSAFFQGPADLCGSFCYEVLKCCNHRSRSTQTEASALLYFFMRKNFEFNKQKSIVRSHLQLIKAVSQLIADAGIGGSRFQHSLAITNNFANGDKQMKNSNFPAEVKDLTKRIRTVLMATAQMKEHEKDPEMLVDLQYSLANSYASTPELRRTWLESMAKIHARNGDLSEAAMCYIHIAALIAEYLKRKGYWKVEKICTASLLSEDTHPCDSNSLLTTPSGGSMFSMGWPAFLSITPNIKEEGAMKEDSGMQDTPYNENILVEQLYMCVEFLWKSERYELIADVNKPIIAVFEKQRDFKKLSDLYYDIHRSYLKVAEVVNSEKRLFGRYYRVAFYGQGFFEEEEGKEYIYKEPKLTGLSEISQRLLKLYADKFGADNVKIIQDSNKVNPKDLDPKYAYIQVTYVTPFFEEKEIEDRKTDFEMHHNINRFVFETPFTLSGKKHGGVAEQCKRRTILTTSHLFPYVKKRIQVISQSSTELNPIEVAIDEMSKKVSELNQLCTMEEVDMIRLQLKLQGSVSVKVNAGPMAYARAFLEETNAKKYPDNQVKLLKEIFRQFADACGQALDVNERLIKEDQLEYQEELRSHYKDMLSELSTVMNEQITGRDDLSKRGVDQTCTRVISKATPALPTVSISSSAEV
UniProt P16591: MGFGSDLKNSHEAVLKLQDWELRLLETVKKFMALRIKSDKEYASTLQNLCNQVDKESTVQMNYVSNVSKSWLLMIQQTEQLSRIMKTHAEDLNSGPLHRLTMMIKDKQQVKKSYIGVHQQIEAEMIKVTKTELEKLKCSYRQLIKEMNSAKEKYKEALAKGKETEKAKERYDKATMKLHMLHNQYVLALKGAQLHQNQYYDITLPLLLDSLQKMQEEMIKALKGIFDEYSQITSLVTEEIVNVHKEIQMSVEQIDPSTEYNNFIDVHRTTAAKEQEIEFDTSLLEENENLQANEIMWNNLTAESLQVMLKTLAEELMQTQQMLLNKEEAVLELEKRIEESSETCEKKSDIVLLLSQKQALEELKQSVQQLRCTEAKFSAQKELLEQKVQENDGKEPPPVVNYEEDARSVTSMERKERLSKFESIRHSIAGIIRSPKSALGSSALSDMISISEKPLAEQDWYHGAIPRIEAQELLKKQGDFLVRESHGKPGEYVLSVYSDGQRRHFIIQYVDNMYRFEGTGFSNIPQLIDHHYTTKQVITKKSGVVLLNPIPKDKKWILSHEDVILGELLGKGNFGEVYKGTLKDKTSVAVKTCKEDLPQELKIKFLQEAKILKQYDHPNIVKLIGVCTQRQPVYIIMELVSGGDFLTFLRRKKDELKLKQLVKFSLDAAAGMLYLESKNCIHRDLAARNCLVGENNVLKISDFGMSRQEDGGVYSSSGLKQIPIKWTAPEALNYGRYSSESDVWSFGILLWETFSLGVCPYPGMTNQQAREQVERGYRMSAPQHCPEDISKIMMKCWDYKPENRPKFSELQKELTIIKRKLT
UniProt O15118, residues 23-1278: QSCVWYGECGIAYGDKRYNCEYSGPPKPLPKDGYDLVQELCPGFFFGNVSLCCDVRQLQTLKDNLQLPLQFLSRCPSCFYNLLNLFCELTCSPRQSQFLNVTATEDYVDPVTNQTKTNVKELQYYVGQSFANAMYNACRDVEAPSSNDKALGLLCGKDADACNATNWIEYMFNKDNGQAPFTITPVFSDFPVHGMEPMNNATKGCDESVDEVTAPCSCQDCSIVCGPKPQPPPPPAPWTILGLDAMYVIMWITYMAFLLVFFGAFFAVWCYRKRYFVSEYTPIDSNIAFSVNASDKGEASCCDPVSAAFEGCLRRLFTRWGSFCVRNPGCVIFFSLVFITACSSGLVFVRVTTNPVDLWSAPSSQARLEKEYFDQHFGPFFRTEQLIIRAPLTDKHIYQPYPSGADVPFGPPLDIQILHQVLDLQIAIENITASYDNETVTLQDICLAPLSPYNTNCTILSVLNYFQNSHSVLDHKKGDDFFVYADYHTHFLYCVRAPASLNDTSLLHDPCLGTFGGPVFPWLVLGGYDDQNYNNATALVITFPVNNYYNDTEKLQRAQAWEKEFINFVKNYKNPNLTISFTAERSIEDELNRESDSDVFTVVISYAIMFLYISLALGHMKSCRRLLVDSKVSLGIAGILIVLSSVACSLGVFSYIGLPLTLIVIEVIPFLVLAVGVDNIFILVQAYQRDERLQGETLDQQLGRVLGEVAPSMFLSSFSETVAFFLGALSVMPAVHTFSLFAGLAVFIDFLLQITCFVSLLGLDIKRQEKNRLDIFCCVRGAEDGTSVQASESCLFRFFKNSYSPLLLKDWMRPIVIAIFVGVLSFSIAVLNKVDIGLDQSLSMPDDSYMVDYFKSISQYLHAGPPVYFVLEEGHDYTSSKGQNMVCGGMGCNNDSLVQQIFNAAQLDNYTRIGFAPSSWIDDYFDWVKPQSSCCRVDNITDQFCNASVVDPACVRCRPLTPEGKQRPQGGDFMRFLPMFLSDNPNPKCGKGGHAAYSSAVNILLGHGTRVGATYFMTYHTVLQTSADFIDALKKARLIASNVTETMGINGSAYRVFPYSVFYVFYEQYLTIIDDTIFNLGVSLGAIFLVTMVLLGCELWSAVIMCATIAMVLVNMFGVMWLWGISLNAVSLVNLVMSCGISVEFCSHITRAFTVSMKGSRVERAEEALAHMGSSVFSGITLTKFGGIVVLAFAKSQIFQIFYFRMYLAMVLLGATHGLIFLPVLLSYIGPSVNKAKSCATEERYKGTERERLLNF
UniProt O00443: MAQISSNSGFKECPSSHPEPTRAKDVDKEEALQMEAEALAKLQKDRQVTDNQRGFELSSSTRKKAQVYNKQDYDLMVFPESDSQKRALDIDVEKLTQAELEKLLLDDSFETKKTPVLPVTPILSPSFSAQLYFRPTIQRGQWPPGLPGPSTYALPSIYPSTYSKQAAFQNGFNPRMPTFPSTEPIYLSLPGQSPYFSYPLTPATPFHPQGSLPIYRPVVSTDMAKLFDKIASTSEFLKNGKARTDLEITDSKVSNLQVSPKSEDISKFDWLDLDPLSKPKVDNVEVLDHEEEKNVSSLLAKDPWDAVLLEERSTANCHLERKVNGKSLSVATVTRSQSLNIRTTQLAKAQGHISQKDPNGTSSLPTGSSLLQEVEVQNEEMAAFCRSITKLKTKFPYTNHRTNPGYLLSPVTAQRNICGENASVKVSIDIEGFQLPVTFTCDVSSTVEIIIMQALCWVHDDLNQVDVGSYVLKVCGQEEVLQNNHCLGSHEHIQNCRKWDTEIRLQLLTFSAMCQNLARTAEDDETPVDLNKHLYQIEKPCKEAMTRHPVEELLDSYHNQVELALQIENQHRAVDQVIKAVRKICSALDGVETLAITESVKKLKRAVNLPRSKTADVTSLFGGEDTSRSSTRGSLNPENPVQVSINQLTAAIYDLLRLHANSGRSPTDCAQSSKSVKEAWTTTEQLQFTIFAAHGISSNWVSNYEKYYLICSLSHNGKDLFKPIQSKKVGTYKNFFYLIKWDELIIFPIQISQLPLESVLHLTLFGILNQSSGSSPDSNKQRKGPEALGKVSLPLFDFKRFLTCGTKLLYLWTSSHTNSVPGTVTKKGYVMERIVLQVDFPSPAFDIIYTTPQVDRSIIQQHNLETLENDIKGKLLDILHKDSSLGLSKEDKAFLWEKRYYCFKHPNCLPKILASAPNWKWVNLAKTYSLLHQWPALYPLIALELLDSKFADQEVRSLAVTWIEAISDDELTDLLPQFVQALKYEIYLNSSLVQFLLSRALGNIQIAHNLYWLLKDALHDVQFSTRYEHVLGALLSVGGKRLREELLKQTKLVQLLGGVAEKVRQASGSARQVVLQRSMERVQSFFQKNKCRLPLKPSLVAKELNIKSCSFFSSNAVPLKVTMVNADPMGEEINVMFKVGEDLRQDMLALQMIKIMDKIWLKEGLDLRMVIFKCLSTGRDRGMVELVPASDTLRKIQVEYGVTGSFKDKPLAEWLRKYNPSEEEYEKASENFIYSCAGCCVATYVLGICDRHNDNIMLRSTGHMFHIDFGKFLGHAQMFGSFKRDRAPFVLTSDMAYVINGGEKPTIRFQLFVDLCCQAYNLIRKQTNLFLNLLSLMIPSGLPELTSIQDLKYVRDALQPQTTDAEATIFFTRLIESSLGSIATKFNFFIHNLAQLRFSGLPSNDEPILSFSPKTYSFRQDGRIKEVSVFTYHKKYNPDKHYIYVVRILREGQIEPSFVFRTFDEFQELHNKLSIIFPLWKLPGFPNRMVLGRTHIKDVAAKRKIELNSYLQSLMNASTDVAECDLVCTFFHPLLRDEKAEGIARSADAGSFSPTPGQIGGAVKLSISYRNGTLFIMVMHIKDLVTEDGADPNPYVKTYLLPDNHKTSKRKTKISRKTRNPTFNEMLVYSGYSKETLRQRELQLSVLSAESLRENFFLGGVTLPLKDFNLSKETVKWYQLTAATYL
UniProt Q9BUF5: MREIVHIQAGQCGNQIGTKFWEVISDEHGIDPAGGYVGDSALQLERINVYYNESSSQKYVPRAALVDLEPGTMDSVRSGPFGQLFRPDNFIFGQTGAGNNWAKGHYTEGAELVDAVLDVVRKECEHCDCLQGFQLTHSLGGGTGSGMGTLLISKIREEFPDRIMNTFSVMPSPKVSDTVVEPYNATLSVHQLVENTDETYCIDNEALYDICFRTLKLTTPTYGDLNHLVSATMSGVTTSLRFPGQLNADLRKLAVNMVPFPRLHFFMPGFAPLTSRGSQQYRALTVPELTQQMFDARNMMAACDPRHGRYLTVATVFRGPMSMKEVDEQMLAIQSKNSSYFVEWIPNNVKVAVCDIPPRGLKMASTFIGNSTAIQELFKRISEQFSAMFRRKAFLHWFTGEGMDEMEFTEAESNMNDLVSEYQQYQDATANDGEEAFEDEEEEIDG

B1: GAK (protein, UniProt O14976 1-1311)
chain: MSLLQSALDFLAGPGSLGGASGRDQSDFVGQTVELGELRLRVRRVLAEGGFAFVYEAQDVGSGREYALKRLLSNEEEKNRAIIQEVCFMKKLSGHPNIVQFCSAASIGKEESDTGQAEFLLLTELCKGQLVEFLKKMESRGPLSCDTVLKIFYQTCRAVQHMHRQKPPIIHRDLKVENLLLSNQGTIKLCDFGSATTISHYPDYSWSAQRRALVEEEITRNTTPMYRTPEIIDLYSNFPIGEKQDIWALGCILYLLCFRQHPFEDGAKLRIVNGKYSIPPHDTQYTVFHSLIRAMLQVNPEERLSIAEVVHQLQEIAAARNVNPKSPITELLEQNGGYGSATLSRGPPPPVGPAGSGYSGGLALAEYDQPYGGFLDILRGGTERLFTNLKDTSSKVIQSVANYAKGDLDISYITSRIAVMSFPAEGVESALKNNIEDVRLFLDSKHPGHYAVYNLSPRTYRPSRFHNRVSECGWAARRAPHLHTLYNICRNMHAWLRQDHKNVCVVHCMDGRAASAVAVCSFLCFCRLFSTAEAAVYMFSMKRCPPGIWPSHKRYIEYMCDMVAEEPITPHSKPILVRAVVMTPVPLFSKQRSGCRPFCEVYVGDERVASTSQEYDKMRDFKIEDGKAVIPLGVTVQGDVLIVIYHARSTLGGRLQAKMASMKMFQIQFHTGFVPRNATTVKFAKYDLDACDIQEKYPDLFQVNLEVEVEPRDRPSREAPPWENSSMRGLNPKILFSSREEQQDILSKFGKPELPRQPGSTAQYDAGAGSPEAEPTDSDSPPSSSADASRFLHTLDWQEEKEAETGAENASSKESESALMEDRDESEVSDEGGSPISSEGQEPRADPEPPGLAAGLVQQDLVFEVETPAVLPEPVPQEDGVDLLGLHSEVGAGPAVPPQACKAPSSNTDLLSCLLGPPEAASQGPPEDLLSEDPLLLASPAPPLSVQSTPRGGPPAAADPFGPLLPSSGNNSQPCSNPDLFGEFLNSDSVTVPPSFPSAHSAPPPSCSADFLHLGDLPGEPSKMTASSSNPDLLGGWAAWTETAASAVAPTPATEGPLFSPGGQPAPCGSQASWTKSQNPDPFADLGDLSSGLQGSPAGFPPGGFIPKTATTPKGSSSWQTSRPPAQGASWPPQAKPPPKACTQPRPNYASNFSVIGAREERGVRAPSFAQKPKVSENDFEDLLSNQGFSSRSDKKGPKTIAEMRKQDLAKDTDPLKLKLLDWIEGKERNIRALLSTLHTVLWDGESRWTPVGMADLVAPEQVKKHYRRAVLAVHPDKAAGQPYEQHAKMIFMELNDAWSEFENQGSRPLF
B2: DENND11 (protein, UniProt A4D1U4 1-455)
chain: MVEQGDAAPLLRWAEGPAVSLPQAPQPQAGGWGRGGGGGARPAAEPPRRREPEEPAAPEVLLQPGRLELGDVEEDQVVAVFVVTFDPRSGNMVEWCLPQDIDLEGVEFKSMASGSHKIQSDFIYFRKGPFFGLACFANMPVESELERGARMKSVGILSPSYTLLYRYMHFLENQVRHQLEMPGHYSHLAAFYEDKKGVLHAGPGRGSSLPPVYWLPSIHRYMYPEMKITHPAGCMSQFIKFFGEQILILWKFALLRKRILIFSPPPVGVVCYRVYCCCCLANVSLPGIGGTIPESKPFFYVNVADIESLEVEVSYVACTTEKIFEEKRELYDVYVDNQNVKTHHDHLQPLLKINSADREKYRRLNEQRQMLLYSQEVEEDYNPCEEDLFVLFFLEQNNRIFQTLLEVSASQDKTLTAEHARGMGLDPQGDRSFLLDLLEAYGIDVMLVIDNPCCP
B3: ARL1 (protein, UniProt P40616 1-181)
chain: MGGFFSSIFSSLFGTREMRILILGLDGAGKTTILYRLQVGEVVTTIPTIGFNVETVTYKNLKFQVWDLGGQTSIRPYWRCYYSNTDAVIYVVDSCDRDRIGISKSELVAMLEEEELRKAILVVFANKQDMEQAMTSSEMANSLGLPALKDRKWQIFKTSATKGTGLDEAMEWLVETLKSRQ
B4: RGS12 (protein, UniProt O14924 1-1447)
chain: MFRAGEASKRPLPGPSPPRVRSVEVARGRAGYGFTLSGQAPCVLSCVMRGSPADFVGLRAGDQILAVNEINVKKASHEDVVKLIGKCSGVLHMVIAEGVGRFESCSSDEEGGLYEGKGWLKPKLDSKALGINRAERVVEEMQSGGIFNMIFENPSLCASNSEPLKLKQRSLSESAATRFDVGHESINNPNPNMLSKEEISKVIHDDSVFSIGLESHDDFALDASILNVAMIVGYLGSIELPSTSSNLESDSLQAIRGCMRRLRAEQKIHSLVTMKIMHDCVQLSTDKAGVVAEYPAEKLAFSAVCPDDRRFFGLVTMQTNDDGSLAQEEEGALRTSCHVFMVDPDLFNHKIHQGIARRFGFECTADPDTNGCLEFPASSLPVLQFISVLYRDMGELIEGMRARAFLDGDADAHQNNSTSSNSDSGIGNFHQEEKSNRVLVVDLGGSSSRHGPGGSAWDGVGGRGAQPWGAPWTGPFCPDPEGSPPFEAAHQTDRFWDLNKHLGPASPVEVPPASLRSSVPPSKRGTVGAGCGFNQRWLPVHVLREWQCGHTSDQDSYTDSTDGWSSINCGTLPPPMSKIPADRYRVEGSFAQPPLNAPKREWSRKAFGMQSIFGPHRNVRKTKEDKKGSKFGRGTGLTQPSQRTSARRSFGRSKRFSITRSLDDLESATVSDGELTGADLKDCVSNNSLSSNASLPSVQSCRRLRERRVASWAVSFERLLQDPVGVRYFSDFLRKEFSEENILFWQACEYFNHVPAHDKKELSYRAREIFSKFLCSKATTPVNIDSQAQLADDVLRAPHPDMFKEQQLQIFNLMKFDSYTRFLKSPLYQECILAEVEGRALPDSQQVPSSPASKHSLGSDHSSVSTPKKLSGKSKSGRSLNEELGDEDSEKKRKGAFFSWSRTRSTGRSQKKREHGDHADDALHANGGLCRRESQGSVSSAGSLDLSEACRTLAPEKDKATKHCCIHLPDGTSCVVAVKAGFSIKDILSGLCERHGINGAAADLFLVGGDKPLVLHQDSSILESRDLRLEKRTLFRLDLVPINRSVGLKAKPTKPVTEVLRPVVARYGLDLSGLLVRLSGEKEPLDLGAPISSLDGQRVVLEEKDPSRGKASADKQKGVPVKQNTAVNSSSRNHSATGEERTLGKSNSIKIKGENGKNARDPRLSKREESIAKIGKKKYQKINLDEAEEFFELISKAQSNRADDQRGLLRKEDLVLPEFLRLPPGSTELTLPTPAAVAKGFSKRSATGNGRESASQPGEQWEPVQESSDSPSTSPGSASSPPGPPGTTPPGQKSPSGPFCTPQSPVSLAQEGTAQIWKRQSQEVEAGGIQTVEDEHVAELTLMGEGDISSPNSTLLPPPSTPQEVPGPSRPGSGTHGSRDLPVNRIIDVDLVTGSAPGRDGGIAGAQAGPGRSQASGGPPTSDLPGLGPVPGEPAKPKTSAHHATFV

target: C-terminal Kv1.3-TurboID (Kv1.3-V5-TurboID fusion) (human) (UniProt P22001); experiment: proximity labelling; TurboID fused to Kv1.3, stably expressed in Jurkat T-cells; 200 μM biotin for 1 h; lysis in 8 M urea; biotinylated proteins enriched on streptavidin magnetic beads; label-free quantitative MS against untransduced Jurkat T-cells or between lines (>4-fold, p<0.05; n=3)

binding, binds:
ADD1 (from UniProt P35611 1-737), AP1G1 (from UniProt O43747 1-822), ARHGAP32 (from UniProt A7KAX9 1-2087), CLTC (from UniProt Q00610 1-1675), DOCK10 (from UniProt Q96BY6 1-2186), EIF5 (from UniProt P55010 1-431), ERBIN (from UniProt Q96RT1 1-1412), FER (from UniProt P16591 1-822), NF2 (from UniProt P35240 1-595), NPC1 (from UniProt O15118 23-1278), PEAK1 (from UniProt Q9H792 1-1746), PIK3C2A (from UniProt O00443 1-1686), ROCK2 (from UniProt O75116 1-1388), TOM1 (from UniProt O60784 1-492), TUBB6 (from UniProt Q9BUF5 1-446), VCP (from UniProt P55072 1-806), VPS26A (from UniProt O75436 1-327), B1, B2, B3, B4
